Results deposited as PubChem BioAssay AID1259308 (NCATS, 2017)
Test: 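Knock-downs that increase output of a recombinant reporter protein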 (primary screen). Cell system: human HEK293 embryonic kidney cells stably expressing firefly luciferase (HEK-CMV-Luc2-Hygro). Reagents: single siRNA against human genes, 0.8 pmol siRNA per well. Time to read-out: 72 h. Read-out: 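Luciferase light (ONE-Glo) measured on one replicate plate set and viability (CellTiter-Glo) on the other, scaled to a negative control siRNA, with robust z-scores and luciferase per cell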. Direction: total luciferase, z-score and total luciferase, % of control: higher = more reporter protein produced. Hit rule: 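An siRNA counts as active if its total luciferase robust z-score exceeds 3; genes with two or more such siRNAs out of three were retested with fresh siRNAs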. Calls: active = raised luciferase; inactive = no rise.
The whole screen tested about 59,000 reagents; below is a part drawn at random. Over the whole deposit, about 1,510 (2.6%) are marked active. 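Calls use total luciferase alone and ignore viability, so some active siRNAs may act by altering cell number.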 Entries without a mark were called inactive. Reagents against one gene are numbered here. Not all columns of the deposit are shown. Reagent sequences are not shown.

| gene | siRNA no. | total luciferase, z-score | total luciferase, % of control |
| --- | --- | --- | --- |
| TEKT1 (tektin 1) | 1 | -0.784 | 66.3 |
| TEKT1 (tektin 1) | 2 | -0.121 | 79.5 |
| TEKT1 (tektin 1) | 3 | 0.00752 | 82 |
| RRAGD (Ras related GTP binding D) | 1 | -1.04 | 61.2 |
| RRAGD (Ras related GTP binding D) | 2 | -0.622 | 69.5 |
| RRAGD (Ras related GTP binding D) | 3 | 0.59 | 93.6 |
| ZNF181 (zinc finger protein 181) | 1 | 1.33 | 108 |
| ZNF181 (zinc finger protein 181) | 2 | -0.0691 | 80.5 |
| ZNF181 (zinc finger protein 181) | 3 | -0.779 | 66.4 |
| SAMD5 (sterile alpha motif domain containing 5) | 1 | -0.644 | 69.1 |
| SAMD5 (sterile alpha motif domain containing 5) | 2 | -0.537 | 71.2 |
| SAMD5 (sterile alpha motif domain containing 5) | 3 | -0.315 | 75.6 |
| DPPA3 (developmental pluripotency associated 3) | 1 | -1.18 | 58.4 |
| DPPA3 (developmental pluripotency associated 3) | 2 | 0.472 | 91.3 |
| DPPA3 (developmental pluripotency associated 3) | 3 | -0.405 | 73.8 |
| RPL21P106 (ribosomal protein L21 pseudogene 106) | 1 | 0.109 | 84.1 |
| RPL21P106 (ribosomal protein L21 pseudogene 106) | 2 | 0.102 | 83.9 |
| RPL21P106 (ribosomal protein L21 pseudogene 106) | 3 | -1.9 | 44.1 |

Already shown: 5 of the entries above.
| gene | siRNA no. | total luciferase, z-score | total luciferase, % of control |
| --- | --- | --- | --- |
| DPPA3 (developmental pluripotency associated 3) | 1 | -1.18 | 58.4 |
| DPPA3 (developmental pluripotency associated 3) | 2 | 0.472 | 91.3 |
| DPPA3 (developmental pluripotency associated 3) | 3 | -0.405 | 73.8 |
| RPL21P106 (ribosomal protein L21 pseudogene 106) | 1 | 0.109 | 84.1 |
| RPL21P106 (ribosomal protein L21 pseudogene 106) | 2 | 0.102 | 83.9 |

The listing continues:
| gene | siRNA no. | total luciferase, z-score | total luciferase, % of control |
| --- | --- | --- | --- |
| EVI2A (ecotropic viral integration site 2A) | 1 | 0.0994 | 83.9 |
| EVI2A (ecotropic viral integration site 2A) | 2 | -1.78 | 46.4 |
| EVI2A (ecotropic viral integration site 2A) | 3 | -1.6 | 50 |
| OR4K17 (olfactory receptor family 4 subfamily K member 17) | 1 | 0.232 | 86.5 |
| OR4K17 (olfactory receptor family 4 subfamily K member 17) | 2 | 2.45 | 131 |
| OR4K17 (olfactory receptor family 4 subfamily K member 17) | 3 | -0.0809 | 80.3 |
| ZNF276 (zinc finger protein 276) | 1 | -0.547 | 71 |
| ZNF276 (zinc finger protein 276) | 2 | -1.03 | 61.4 |
| ZNF276 (zinc finger protein 276) | 3 | 0.045 | 82.8 |
| PGAP2 (post-GPI attachment to proteins 2) | 1 | -0.133 | 79.2 |
| PGAP2 (post-GPI attachment to proteins 2) | 2 | 0.35 | 88.8 |
| PGAP2 (post-GPI attachment to proteins 2) | 3 | 0.745 | 96.7 |
| SRSF9 (serine and arginine rich splicing factor 9) | 1 | -0.44 | 73.1 |
| SRSF9 (serine and arginine rich splicing factor 9) | 2 | -0.617 | 69.6 |
| SRSF9 (serine and arginine rich splicing factor 9) | 3 | 0.77 | 97.2 |
| BUB1B (BUB1 mitotic checkpoint serine/threonine kinase B) | 1 | 1.2 | 106 |
| BUB1B (BUB1 mitotic checkpoint serine/threonine kinase B) | 2 | 0.917 | 100 |
| BUB1B (BUB1 mitotic checkpoint serine/threonine kinase B) | 3 | 0.287 | 87.6 |
| RNF216 (ring finger protein 216) | 1 | 1.21 | 106 |
| RNF216 (ring finger protein 216) | 2 | -0.0392 | 81.1 |
| RNF216 (ring finger protein 216) | 3 | -0.398 | 74 |
